Test results: PMC11535509
Results are given in words; binding and its absence hold for the method and conditions named. Some entries that bind do so weakly or less than the wild type.

T1: MICU1, mouse brain (mouse (endogenous in brain)) (UniProt Q8VCX5)
T1 sequence: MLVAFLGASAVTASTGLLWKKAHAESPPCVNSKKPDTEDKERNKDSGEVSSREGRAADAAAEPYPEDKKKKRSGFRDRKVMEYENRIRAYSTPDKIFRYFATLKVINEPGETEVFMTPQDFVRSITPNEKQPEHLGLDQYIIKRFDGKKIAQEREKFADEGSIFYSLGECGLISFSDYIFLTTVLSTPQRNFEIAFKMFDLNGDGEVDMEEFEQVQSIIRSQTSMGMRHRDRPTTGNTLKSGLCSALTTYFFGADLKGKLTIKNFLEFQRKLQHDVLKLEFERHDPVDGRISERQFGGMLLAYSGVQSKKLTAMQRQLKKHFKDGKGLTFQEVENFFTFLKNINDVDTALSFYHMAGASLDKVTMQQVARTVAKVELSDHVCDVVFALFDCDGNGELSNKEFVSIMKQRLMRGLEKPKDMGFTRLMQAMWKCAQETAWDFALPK

B1: MICU3, mouse brain (protein, UniProt Q9CTY5 7-523)
chain: FLWPPPRLSPALAPQQPFLSPWGRPAGTAPGMSGRPFSCREEDEGAVAEAAWRRRRWGELSIAAAAGGGLVGLVCYQLYGDPRADPSELAAPELEDPPRGRGLLPIPVAAAKETVATGRAITEDLDLYATSRERRFRLFASIECEGQLFMTPYDFILAVTTDEPKFAKTWKSLSKQELSQMLSETPPVWKGSSKLFRNLKERGVISYTEYLFLLCILTKPHAGFRIAFNMFDTDGNEMVDKKEFLVLQEIFRKKNEKRETKGDEEKRAMLRLQLYGYHSPTNSVLKTDAGELVSRSYWDTLRRSTSQALFSDLAERADDITSLVADTTLLVHFFGKKGKAELNFEDFYRFMDNLQTEVLEIEFLSYSNGMNTISEEDFAHILLRYTNVENTSVFLENVRYSISEEKGITFDEFRSFFQFLNNLEDFAIALNMYNFASRSIGQDEFKRAVYVATGLKLSPHLVNTVFKIFDVDKDDQLSYKEFIGIMKDRLHRGFRGYKTVQKYPTFKSCLKKELHSR
B2: EF-hand domain-containing protein D1 (EFHD1), endogenous (protein, UniProt Q9BUP0 1-239)
chain: MASEELACKLERRLRREEAEESGPQLAPLGAPAPEPKPEPEPPARAPTASADAELSAQLSRRLDINEGAARPRRCRVFNPYTEFPEFSRRLIKDLESMFKLYDAGRDGFIDLMELKLMMEKLGAPQTHLGLKSMIKEVDEDFDGKLSFREFLLIFHKAAAGELQEDSGLMALAKLSEIDVALEGVKGAKNFFEAKVQALSSASKFEAELKAEQDERKREEEERRLRQAAFQKLKANFNT

How the values were obtained:
[1] = molecular target: T1, MICU1, mouse brain (mouse (endogenous in brain)); assay: non-reducing SDS-PAGE and immunoblot; mitochondria (HeLa, HEK293 or mouse brain) denatured at 70 °C for 10 min in LDS sample buffer with or without 100 mM DTT; shows only disulfide-linked dimers or oligomers
[2] = molecular target: EF-hand domain-containing protein D1 (EFHD1), endogenous (human (endogenous in HEK293 and HeLa)) (UniProt Q9BUP0); assay: as above

| binding [1] | binding [2] | Binder |
| --- | --- | --- |
| binds |  | B1 |
|  | no binding | B2 |
